According to paper PMC3944714:
Results are given in words; binding and its absence hold for the method and conditions named. In cells and extracts the contact can be indirect. Some results given as binding are weak or reduced against the parent protein; the word gives no strength. For part of these data: Where a sequence is shown, tags or fusion partners need not be part of it.

B1: MCAF1 (protein, UniProt Q6VMQ6 1-1270)
chain: MDSLEEPQKKVFKARKTMRVSDRQQLEAVYKVKEELLKTDVKLLNGNHENGDLDPTSPLENMDYIKDKEEVNGIEEICFDPEGSKAEWKETPCILSVNVKNKQDDDLNCEPLSPHNITPEPVSKLPAEPVSGDPAPGDLDAGDPASGVLASGDSTSGDPTSSEPSSSDAASGDATSGDAPSGDVSPGDATSGDATADDLSSGDPTSSDPIPGEPVPVEPISGDCAADDIASSEITSVDLASGAPASTDPASDDLASGDLSSSELASDDLATGELASDELTSESTFDRTFEPKSVPVCEPVPEIDNIEPSSNKDDDFLEKNGADEKLEQIQSKDSLDEKNKADNNIDANEETLETDDTTICSDRPPENEKKVEEDIITELALGEDAISSSMEIDQGEKNEDETSADLVETINENVIEDNKSENILENTDSMETDEIIPILEKLAPSEDELTCFSKTSLLPIDETNPDLEEKMESSFGSPSKQESSESLPKEAFLVLSDEEDISGEKDESEVISQNETCSPAEVESNEKDNKPEEEEQVIHEDDERPSEKNEFSRRKRSKSEDMDNVQSKRRRYMEEEYEAEFQVKITAKGDINQKLQKVIQWLLEEKLCALQCAVFDKTLAELKTRVEKIECNKRHKTVLTELQAKIARLTKRFEAAKEDLKKRHEHPPNPPVSPGKTVNDVNSNNNMSYRNAGTVRQMLESKRNVSESAPPSFQTPVNTVSSTNLVTPPAVVSSQPKLQTPVTSGSLTATSVLPAPNTATVVATTQVPSGNPQPTISLQPLPVILHVPVAVSSQPQLLQSHPGTLVTNQPSGNVEFISVQSPPTVSGLTKNPVSLPSLPNPTKPNNVPSVPSPSIQRNPTASAAPLGTTLAVQAVPTAHSIVQATRTSLPTVGPSGLYSPSTNRGPIQMKIPISAFSTSSAAEQNSNTTPRIENQTNKTIDASVSKKAADSTSQCGKATGSDSSGVIDLTMDDEESGASQDPKKLNHTPVSTMSSSQPVSRPLQPIQPAPPLQPSGVPTSGPSQTTIHLLPTAPTTVNVTHRPVTQVTTRLPVPRAPANHQVVYTTLPAPPAQAPLRGTVMQAPAVRQVNPQNSVTVRVPQTTTYVVNNGLTLGSTGPQLTVHHRPPQVHTEPPRPVHPAPLPEAPQPQRLPPEAASTSLPQKPHLKLARVQSQNGIVLSWSVLEVDRSCATVDSYHLYAYHEEPSATVPSQWKKIGEVKALPLPMACTLTQFVSGSKYYFAVRAKDIYGRFGPFCDPQSTDVISSTQSS
B2: GFP-MCAF1-DM1 (domain or fragment, UniProt Q6VMQ6 562-817)
chain: MDNVQSKRRRYMEEEYEAEFQVKITAKGDINQKLQKVIQWLLEEKLCALQCAVFDKTLAELKTRVEKIECNKRHKTVLTELQAKIARLTKRFEAAKEDLKKRHEHPPNPPVSPGKTVNDVNSNNNMSYRNAGTVRQMLESKRNVSESAPPSFQTPVNTVSSTNLVTPPAVVSSQPKLQTPVTSGSLTATSVLPAPNTATVVATTQVPSGNPQPTISLQPLPVILHVPVAVSSQPQLLQSHPGTLVTNQPSGNVEFI
B3: GFP-MCAF1-DM2 (domain or fragment, UniProt Q6VMQ6 1154-1270)
chain: EAASTSLPQKPHLKLARVQSQNGIVLSWSVLEVDRSCATVDSYHLYAYHEEPSATVPSQWKKIGEVKALPLPMACTLTQFVSGSKYYFAVRAKDIYGRFGPFCDPQSTDVISSTQSS
B4: GFP-MCAF1-M (domain or fragment, UniProt Q6VMQ6 818-1153)
chain: SVQSPPTVSGLTKNPVSLPSLPNPTKPNNVPSVPSPSIQRNPTASAAPLGTTLAVQAVPTAHSIVQATRTSLPTVGPSGLYSPSTNRGPIQMKIPISAFSTSSAAEQNSNTTPRIENQTNKTIDASVSKKAADSTSQCGKATGSDSSGVIDLTMDDEESGASQDPKKLNHTPVSTMSSSQPVSRPLQPIQPAPPLQPSGVPTSGPSQTTIHLLPTAPTTVNVTHRPVTQVTTRLPVPRAPANHQVVYTTLPAPPAQAPLRGTVMQAPAVRQVNPQNSVTVRVPQTTTYVVNNGLTLGSTGPQLTVHHRPPQVHTEPPRPVHPAPLPEAPQPQRLPP
B5: His-ATF2-C (domain or fragment, UniProt P15336 324-505)
chain: ETPASPAHTTPQTQSTSGRRRRAANEDPDEKRRKFLERNRAAASRCRQKRKVWVQSLEKKAEDLSSLNGQLQSEVTLLRNEVAQLKQLLLAHKDCPVTAMQKKSGYHTADKDDSSEDISVPSSPHTEAIQHSSVSTSNGVSSTSKAEAVATSVLTQMADQSTEPALSQIVMAPSSQSQPSGS
B6: His-ATF2 (protein, UniProt P15336 1-505)
chain: MKFKLHVNSARQYKDLWNMSDDKPFLCTAPGCGQRFTNEDHLAVHKHKHEMTLKFGPARNDSVIVADQTPTPTRFLKNCEEVGLFNELASPFENEFKKASEDDIKKMPLDLSPLATPIIRSKIEEPSVVETTHQDSPLPHPESTTSDEKEVPLAQTAQPTSAIVRPASLQVPNVLLTSSDSSVIIQQAVPSPTSSTVITQAPSSNRPIVPVPGPFPLLLHLPNGQTMPVAIPASITSSNVHVPAAVPLVRPVTMVPSVPGIPGPSSPQPVQSEAKMRLKAALTQQHPPVTNGDTVKGHGSGLVRTQSEESRPQSLQQPATSTTETPASPAHTTPQTQSTSGRRRRAANEDPDEKRRKFLERNRAAASRCRQKRKVWVQSLEKKAEDLSSLNGQLQSEVTLLRNEVAQLKQLLLAHKDCPVTAMQKKSGYHTADKDDSSEDISVPSSPHTEAIQHSSVSTSNGVSSTSKAEAVATSVLTQMADQSTEPALSQIVMAPSSQSQPSGS
B7: His-ATF2-N1 (domain or fragment, UniProt P15336 1-119)
chain: MKFKLHVNSARQYKDLWNMSDDKPFLCTAPGCGQRFTNEDHLAVHKHKHEMTLKFGPARNDSVIVADQTPTPTRFLKNCEEVGLFNELASPFENEFKKASEDDIKKMPLDLSPLATPII
B8: His-ATF2-N2 (domain or fragment, UniProt P15336 120-323)
chain: RSKIEEPSVVETTHQDSPLPHPESTTSDEKEVPLAQTAQPTSAIVRPASLQVPNVLLTSSDSSVIIQQAVPSPTSSTVITQAPSSNRPIVPVPGPFPLLLHLPNGQTMPVAIPASITSSNVHVPAAVPLVRPVTMVPSVPGIPGPSSPQPVQSEAKMRLKAALTQQHPPVTNGDTVKGHGSGLVRTQSEESRPQSLQQPATSTT
B9: ATF2 (protein, UniProt P15336 1-505)
chain: B6 chain

Biological target: T1, ATF2 (human (endogenous in P3HR1 and 293T)) (UniProt P15336)
T1 sequence: B6 chain
Assay: co-IP

Q: B1 was tested. Which binding did it give?
A: binds

Q: B2 was tested. Which binding did it give?
A: binds

Q: With B3 as the binder, how does the binding read?
A: binds

Q: For B4, which binding is on record?
A: no binding

Biological target: T2, Flag-MCAF1 (UniProt Q6VMQ6)
T2 sequence: B1 chain
Assay: co-IP

Q: Which binding does the source give for B5 here?
A: binds

Q: How did the binding turn out when B6 was run?
A: binds

Q: Which binding does the source give for B7 here?
A: binds

Q: Which binding does the source give for B8 here?
A: no binding

Biological target: T3, MCAF1 (human (endogenous in P3HR1 and 293T)) (UniProt Q6VMQ6)
T3 sequence: B1 chain
Assay: co-IP

Q: B9 was tested. Which binding did it give?
A: binds
